## Results of single-concentration screens

Mtb cholesterol medium: 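Whole-cell growth test on Mycobacterium tuberculosis, read after 4 days in a medium based on cholesterol and the lipid DPPC; the read-out is not stated. Tested at 50 µM. Higher reads as more growth inhibition (inferred: compounds with an IC50 in retests scored well above the rest). Of about 69,000 compounds tested this way, about 370 (0.54%) reached 50% or more in at least one test.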
Mtb glucose medium: 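Whole-cell growth test on Mycobacterium tuberculosis, read after 3 days in glucose-containing 7H9 medium; the read-out is not stated. Concentration: 50 µM. The record gives no direction; compounds that gave an IC50 in retests scored well above the rest, so higher reads as more growth inhibition. About 69,000 compounds were tested under these conditions; 1.1% (about 760) showed 50% or more at least once.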

The filed quantity is “Percent Effect” (%).
How 0% and 100% were set is not recorded. Most values in the screen are low, and negative values occur.
Compounds were drawn at random from those tested, without regard to their results.
Two or more numbers in one place are separate tests of the same structure; such repeats can differ widely.

| Compound | Mtb cholesterol medium | Mtb glucose medium |
|---|---|---|
| `c1cc(-c2cnccn2)cc(-c2ccn(CCN3CCCCC3)n2)c1` | 22.16 | 13.21 & 13.98 |
| `O=C(O)C(F)(F)F.[H][C@@]12CN(Cc3ccsc3)CCO[C@]1([H])CN(C(=O)C1CC=CC1)C2` | -7.027 & -7.943 | -35.87 |
| `CN(C)C(=O)CNC(=O)c1nc2c(s1)CCCN2Cc1ccccc1` | 4.099 | -32.16 & -12.58 |
| `Cc1cc(C)n(CC2CCCCN2C(=O)c2ccc(C(N)=O)cc2)n1` (stereo not shown) | 18.94 | 8.276 |
| `CCN(CC(F)(F)F)C(=O)C1CCCN(Cc2ccccn2)C1` (stereo not shown) | -10.67 | -23.58 |
| `CC(c1ccc(Br)cc1)N1CCCN(C(N)=O)CC1` (stereo not shown) | 31.52 | -2.182 & 2.41 |
| `O=C(N1CCOCC1)N1CCCC1c1nc(-c2ccccn2)no1` (stereo not shown) | 3.208 & -19.35 | 1.814 |
| `Cc1ccc(NC2CCN(C(=O)c3ccco3)CC2)nn1` | -5.858 | -22.63 & -0.08738 |
| `CC(C)c1nnc(NC(=O)c2cccc(OCC(F)(F)F)n2)[nH]1` | 20.49 | 12.63 |
| `COCCNC(=O)c1ccc2c(=O)n3c(nc2c1)CCCCC3` | -14.66 | -10.91 |
| `O=c1cc(-c2cccnc2)nc(-c2ccc(CN3CC[C@@H](O)C3)cc2)[nH]1` | -18.91 & 1.508 | -24.73 |
| `Cn1cc(-c2nc(CN3CCOC(Cn4cccn4)C3)cs2)cn1` (stereo not shown) | -5.874 & 3.437 | 4.146 |
| `COCCn1ccnc1C1CCCN(C(=O)c2ccccc2C#N)C1` (stereo not shown) | -5.757 | -1.028 & -5.26 |
| `O=c1[nH]ccc2cc(-c3cc(O)cc(CCC4CCCCN4)c3)ccc12` (stereo not shown) | 19.15 | 48.07 |
| `CC1N(c2cnn(C)c2)C(=O)COC12CCN(c1ncccn1)CC2.O=C(O)C(F)(F)F` (stereo not shown) | -6.968 | 3.022 |
| `CC(O)CN1CCN(C(=O)c2ccc(N3CCCC3)nn2)CC1` (stereo not shown) | 0.4504 | 23.21 |
| `O=C(CCc1cc2n(n1)CCCNC2)NCCCSC1CCCCC1` | -7.683 | -3.197 |
| `O=C(CC1CC1)N1CCC2(CCCN(CCOc3ccccc3)C2)C1.O=C(O)C(F)(F)F` (stereo not shown) | 13.02 & -0.6943 | 4.198 |
| `c1cncc(-c2nnc(C3(c4ccc5c(c4)OCO5)CCOCC3)o2)c1` | 3.742 | 16.71 |
| `O=C(O)C(F)(F)F.O=C(O)C(F)(F)F.[H][C@@]12COC[C@H](NS(C)(=O)=O)[C@]1([H])CN(Cc1cccc(C)n1)C2` | -22.63 | -13.14 |
| `CC(C)c1noc(CN2CCC(c3ccnn3CCO)CC2)n1` | -1.645 | -5.969 |
| `Cl.O=C(CCC1CCCC1)N1CCCC(c2ncc3c(n2)CCNC3)C1` (stereo not shown) | 17.84 | 53.33 |
| `CC(=O)N(C)c1nc(CN2CCN(Cc3nccn3C)CC2)cs1` | -25.53 | -29.29 |
| `COCC(=O)NCCc1ccc(Cl)s1` | 29.04 | 48.45 |
| `COc1ccc(C(=O)N2CCCS2(=O)=O)cc1` | 7.771 | -3.863 |
| `Cc1nc(CN2CCN(c3cc(CCN)ncn3)CC2)cs1` | -3.456 | -0.3861 |
| `Cc1nn(C)c(C)c1CC(=O)NCc1cccnc1N1CCOCC1` | 9.225 | 9.986 |
| `CCOCc1nn(CC2CC2)c2c1CN(C(=O)c1ccno1)CC2` | 7.379 | 22.39 & -0.9568 |
| `COc1ccc(C(=O)NS(C)(=O)=O)cc1-c1ccccc1` | -9.418 | -29.26 & -3.994 |
| `Cc1cc(C(=O)N2CCC(O)(Cn3ccc4ccncc43)CC2)on1` | -24.32 | -13.54 |
| `Clc1cc(CN2CCCCC2Cn2cncn2)c2ncccc2c1` (stereo not shown) | -6.382 | -22.77 |
| `COc1c(C(=O)NC(C)CC(=O)c2cccs2)c(C)nn1C` (stereo not shown) | 5.698 | 26.37 |
| `CC(=O)N[C@@H]1CN(C(=O)c2cnc3ccccc3c2)C[C@H]1O` | 1.933 | -1.812 |
| `c1ccc(-c2noc([C@@H]3Cc4nc[nH]c4CN3)n2)cc1` | 18.47 | 30.78 & 11.62 |
| `CC(=O)NCC(=O)N1CCc2c(CNc3ncccn3)cncc2C1.Cl` | 4.735 | 1.374 & 40.93 |
| `Cc1cc(S(=O)(=O)Nc2onc(C)c2C)c(C)s1` | 7.907 | -3.012 |
| `CC(c1ccc(Cl)cc1)N1CCN(CCS(C)(=O)=O)CC1` (stereo not shown) | 26.38 | -3.314 |
| `CN(C)[C@@H]1CO[C@H](CNC(=O)CC(C)(C)C)[C@H]1O` | 0.8279 | 33.29 & 4.754 |
| `[H][C@]12CN(C(=O)c3ccc4c(c3)CCCC4)C[C@]1([H])N(C)C(=O)CO2` | -9.22 & -24.79 | -46.79 |
| `Cc1nccc(N[C@H]2CN(CCS(C)(=O)=O)C[C@@H]2C2CC2)n1` | -5.426 | 15.77 |
| `CC(C)(N)C(=O)N1CCCC1c1cncc(Oc2ccccc2)n1` (stereo not shown) | -22.71 | -19.83 |
| `CO[C@@H]1CCN(c2ncc(F)cn2)[C@H]1Cc1cnn(C)c1` | 2.478 & -8.742 | -1.573 |
| `Cc1csc2ncn(C(C)Cc3cccnc3)c(=O)c12` (stereo not shown) | -6.421 | 12.72 |
| `[H][C@]12CC[C@]([H])(CN(Cc3cscn3)C1)N(C(=O)c1cccn1C)C2` | 4.084 | -21.5 |
| `Cc1ccc(CN2CCCC2(C(N)=O)c2cnccn2)c(C)c1` (stereo not shown) | -2.51 | -4.672 |
| `CCN1CCC(CNC(=O)C2(c3ccc(F)cc3)CC2)C1` (stereo not shown) | -47.23 | -20.42 |
| `CCC1CCCCN1S(=O)(=O)c1c(N)noc1C` (stereo not shown) | 1.467 | 7.291 |
| `Cc1nn(C)c(N(C)C)c1CNCc1ccc2c(c1)OCO2` | -30.88 | -50.97 |
| `Br.CCOc1ccc(Br)cc1C1CCCN1` (stereo not shown) | -7.519 | -6.137 |
| `CC(C)NC(=O)N1CCCn2cnc(CN3CCCC3=O)c2C1` | -23.82 | -18.45 |
| `CC(=O)N1CCCC(Cc2cncc(Br)c2)C1` (stereo not shown) | 14.29 | 13.93 |
| `CCC(=O)N1CCC(Cc2nccnc2Nc2ccccn2)CC1` | -0.2108 | -28.81 |
| `O=C(NCc1ccccc1F)Nc1ccn(CCN2CCOCC2)n1` | -12.61 | -2.142 |
| `CC(=O)N[C@@H]1CN(C(=O)c2cccc(C(F)(F)F)c2)C[C@H]1O` | -18.86 & -14.95 | -13.06 |
| `Cc1cnc2c(S(=O)(=O)NCC3CCOC3)cccc2c1` (stereo not shown) | -7.322 | 13.04 |

For reference, 6 entries once more:

Result for Cc1cc(C)n(CC2CCCCN2C(=O)c2ccc(C(N)=O)cc2)n1 (stereo not shown) was Mtb cholesterol medium: 18.94%; Mtb glucose medium: 8.276%.
Result for Cc1nn(C)c(C)c1CC(=O)NCc1cccnc1N1CCOCC1 was Mtb cholesterol medium: 9.225%; Mtb glucose medium: 9.986%.
Result for CC(=O)N(C)c1nc(CN2CCN(Cc3nccn3C)CC2)cs1 was Mtb cholesterol medium: -25.53%; Mtb glucose medium: -29.29%.
Result for CCN(CC(F)(F)F)C(=O)C1CCCN(Cc2ccccn2)C1 (stereo not shown) was Mtb cholesterol medium: -10.67%; Mtb glucose medium: -23.58%.
Result for O=c1[nH]ccc2cc(-c3cc(O)cc(CCC4CCCCN4)c3)ccc12 (stereo not shown) was Mtb cholesterol medium: 19.15%; Mtb glucose medium: 48.07%.
Result for Clc1cc(CN2CCCCC2Cn2cncn2)c2ncccc2c1 (stereo not shown) was Mtb cholesterol medium: -6.382%; Mtb glucose medium: -22.77%.

Measurements from “University of Dundee, Small-Polar-MMV Screening Library” (2021), ChEMBL document CHEMBL3988442.